This is an account of results in PMC12548433.

Assay in all cases: co-IP
For assay [1], the target named is T1, ribonucleic acid export 1 (RAE1) (human (endogenous in 293T)) (UniProt P78406).
T1 sequence: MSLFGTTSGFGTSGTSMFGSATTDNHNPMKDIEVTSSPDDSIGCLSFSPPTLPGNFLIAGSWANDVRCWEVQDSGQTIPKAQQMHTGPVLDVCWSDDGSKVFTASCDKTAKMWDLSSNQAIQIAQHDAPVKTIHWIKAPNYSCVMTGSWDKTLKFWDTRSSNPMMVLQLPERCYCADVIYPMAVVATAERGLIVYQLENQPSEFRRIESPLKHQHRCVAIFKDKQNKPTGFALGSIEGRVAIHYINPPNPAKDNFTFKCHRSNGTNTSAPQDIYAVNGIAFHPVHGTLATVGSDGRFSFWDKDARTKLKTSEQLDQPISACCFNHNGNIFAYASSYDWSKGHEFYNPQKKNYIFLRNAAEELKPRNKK

Assay [2] concerns the target T2, FLAG-tagged leader (L) protein of Theiler's murine encephalomyelitis virus (Theiler's murine encephalomyelitis virus) (UniProt P13899).
T2 sequence: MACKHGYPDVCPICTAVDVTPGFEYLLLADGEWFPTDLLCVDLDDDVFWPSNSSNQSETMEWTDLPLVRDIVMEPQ

Assay [3] concerns the target FLAG-tagged leader (L) protein of Boone cardiovirus (Boone cardiovirus).

No constants are given. Whether binding was seen depends on the method and setting. In cells and extracts the contact can be indirect. For part of these data: A result given as binding can be weak or reduced; the word gives no strength. For part of these data: Tags and fused reporters may be left off the sequences shown.

On to “GFP fused to the BCV L^62-81 NPC targeting peptide (Boone cardiovirus) (domain or fragment)”, for which, in assay [1], the binding entry was “binds”.
As to “nucleoporin 98 (NUP98) (human (endogenous in 293T))”, the binding result in assay [2] is on record as “no binding”.

B1: ribonucleic acid export 1 (RAE1) (protein, UniProt P78406 1-368)
chain: T1 sequence
Turning to B1, the binding result in assay [3] is on record as “binds”.
